Assays:
[1] = test system: MRSA; experiment: Petri dish zone of inhibition test; type: cell-based, Methicillin Resistant Staph Aureus; conditions: FIG. 17, identical size drops (diameters of ZOA)
[2] = test system: Klebsiella pneumoniae; experiment: Petri dish zone of inhibition test; type: cell-based; conditions: FIG. 18, identical size drops
[3] = test system: E. coli; experiment: Petri dish zone of inhibition test; type: cell-based; conditions: FIG. 19, identical size drops
[4] = test system: Proteus vulgaris; experiment: Petri dish zone of inhibition test; type: cell-based; conditions: FIG. 20, identical size drops
[5] = test system: Pseudomonas aeruginosa; experiment: Petri dish zone of inhibition test; type: cell-based; conditions: FIG. 21, identical size drops
[6] = test system: Acinetobacter lwoffi; experiment: Petri dish zone of inhibition test; type: cell-based; conditions: FIG. 23, identical size drops
[7] = test system: Acinetobacter baumannii; experiment: Petri dish zone of inhibition test; type: cell-based; conditions: Acinetobacter baumanii, FIG. 24; identical size drops
[8] = test system: Staph aureus; experiment: Petri dish zone of inhibition comparison with control agents; type: cell-based, Staphylococcus aureus; conditions: FIG. 16, identical size drops (diameters of ZOA)

## O=C(O)c1cn(C2CC2)c2cc(N3CCNCC3)c(F)cc2c1=O [Ciprofloxacin]
[1]
  zones of inhibition of control agents compared with the formulations of the invention: considerably reduced zones of inhibition
[2]
  zones of inhibition of control agents compared with the formulations of the invention: considerably reduced zones of inhibition
[3]
  zones of inhibition of control agents compared with the formulations of the invention: considerably reduced zones of inhibition
[4]
  zones of inhibition of control agents compared with the formulations of the invention: considerably reduced zones of inhibition
[5]
  zones of inhibition of control agents compared with the formulations of the invention: considerably reduced zones of inhibition
[6]
  zones of inhibition of control agents compared with the formulations of the invention: considerably reduced zones of inhibition
[7]
  zones of inhibition of control agents compared with the formulations of the invention: considerably reduced zones of inhibition
[8]
  zones of inhibition of control agents compared with the formulations of the invention: considerably reduced zones of inhibition

From patent publication US20120070390A1, “Topical drug delivery system with dual carriers” (priority 2010, published 2012)
